The results are deposited in PubChem (AID893; NCATS, 2007).

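Inhibition of a His-tagged, E. coli-produced human HSD17B10 is judged by how it slows the gain in NADH fluorescence from NAD+ reduction. Each compound was run as a 15-point series from about 0.0007 to 57 µM. Fitted half-maximal potency (AC50) from the inhibition curve; a lower value means a more potent inhibitor. The record's title names HSD17B4; its protocol and target entry give this enzyme. Active means a well-fitted inhibition curve with a large enough effect; inconclusive means a weak, poorly fitted or top-concentration-only effect.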

Values are in µM. Only part of the assay is listed here, not a random draw. Potencies fitted to partial, single-point or poorly fitting curves are rough. Some entries filed as inconclusive have a full curve.

| SMILES | potency (µM) | filed as | curve |
|---|---|---|---|
| `Cc1cccn2c(=O)c3cc(C#N)c(=N)n(Cc4cccnc4)c3nc12` | 31.62 | inconclusive | inhibitor, single point |
| `COc1ccc(S(=O)(=O)C(C#N)c2nc3ccccc3nc2N2CCCC(C)C2)cc1` (configuration not stated) | 31.62 | active | - |
| `O=C(c1ccco1)N1CCN(C(=O)c2cccn3c(=O)c4c5c(sc4nc23)CCCC5)CC1` | 25.12 | inconclusive | inhibitor, single point |
| `COC(=O)CSc1nc2cc(C)cc(C)c2cc1C#N` | 31.62 | inconclusive | inhibitor, single point |
| `Nc1nc(N)c2nc(CNc3ccc(C(=O)N[C@H](CCC(=O)O)C(=O)O)cc3)cnc2n1` | 5.012 | inconclusive | inhibitor, full curve |
| `Cn1c(=O)c(-c2ccccc2)nc2cnc(OCc3ccccc3)nc21` | 25.12 | active | - |
| `CN1CCN(C(=O)c2cc3c(ccc4ccccc43)oc2=O)CC1` | 25.12 | active | - |
| `CCN(C(=O)c1coc(=O)c(Br)c1)c1ccc2c(c1)OCO2` | 25.12 | active | - |
| `O=C(Nc1cnn(Cc2ccccc2)c1)c1cc2nc(-c3ccco3)cc(C(F)(F)F)n2n1` | 31.62 | inconclusive | inhibitor, single point |
| `CC1Cc2ccccc2N1C(=O)CSc1nnc2n1C(C)(C)Cc1ccccc1-2` (configuration not stated) | 25.12 | active | - |
| `O=c1c(O)c(-c2cc(O)c(O)c(O)c2)oc2cc(O)cc(O)c12` | 7.943 | active | - |
| `CN(C)c1ncc2nc(-c3ccc(F)cc3)c(=O)n(Cc3cccs3)c2n1` | 31.62 | inconclusive | inhibitor, single point |
| `CN1CCN(c2ncc3nc(-c4cccs4)c(=O)n(Cc4cccs4)c3n2)CC1` | 5.012 | inconclusive | inhibitor, full curve, poor fit |
| `CCCCC12CNCC(C)(CNC1)C2=O` | 25.12 | inconclusive | inhibitor, single point |
| `CCC(=O)O[C@H]1C(O[C@@H]2C(C)[C@H](O[C@H]3C[C@@](C)(OC)C(O)C(C)O3)C(C)C(=O)OC(CC)[C@@](C)(O)C(O)[C@H](C)C(=O)C(C)C[C@]2(C)O)OC(C)CC1N(C)C` (some centres not stated) | 39.81 | inconclusive | inhibitor, single point |
| `CCN(CC)Cc1c(O)ccc2c(-c3ccccc3)cc(=O)oc12` | 39.81 | inconclusive | inhibitor, single point |
| `N#CC(C#N)=Cc1ccc(O)c(O)c1` | 25.12 | inconclusive | inhibitor, single point |
| `N#Cc1cc2cc3c(cc2nc1N1CCCCC1)OCCO3` | 31.62 | active | - |
| `O=c1c2cc(N3CCOCC3)ccc2[nH]c(=S)n1CC1CCCO1` (configuration not stated) | 39.81 | inconclusive | inhibitor, single point |
| `Oc1c(I)cc(I)c2cccnc12` | 25.12 | inconclusive | inhibitor, single point |
| `CCOc1ccc2nc3c(cc2c1)CN(CCCO)C(=NCCOC)S3` | 25.12 | active | - |
| `O=C(NCc1ccco1)c1cc2ccc(O)cc2oc1=O` | 25.12 | active | - |
| `COc1ccc2[nH]cc(CCNC(C)=O)c2c1` | 39.81 | inconclusive | inhibitor, single point |
| `CC/C(=C(\c1ccccc1)c1ccc(OCCN(C)C)cc1)c1ccccc1` | 39.81 | inconclusive | inhibitor, single point |
| `CCC(C)C(N)C1=NC(C(=O)NC(CC(C)C)C(=O)NC(CCC(=O)O)C(=O)NC(C(=O)NCCCCC2NC(=O)C(CC(N)=O)NC(=O)C(CC(=O)O)NC(=O)C(Cc3cnc[nH]3)NC(=O)C(Cc3ccccc3)NC(=O)C(C(C)CC)NC(=O)C(CCCN)NC2=O)C(C)CC)CS1` (configuration not stated) | 31.62 | inconclusive | inhibitor, single point |
| `CCOC(=O)Cc1c(C)c2ccc(N(CC)CC)cc2oc1=O` | 25.12 | active | - |
| `CN(C)c1ncc2nc(CCc3ccccc3)c(=O)n(Cc3cccs3)c2n1` | 31.62 | active | - |
| `Cc1ccc(Cl)cc1N1CCN(C(=O)CN2C(=O)c3cccc4cccc2c34)CC1` | 31.62 | active | - |
| `CCC(c1nnnn1CCOC)N(Cc1ccc(C)cc1)Cc1cc2cc(OC)ccc2[nH]c1=O` (configuration not stated) | 39.81 | inconclusive | inhibitor, single point |
| `CCCC(c1nnnn1CC(=O)OCC)N(Cc1cc2ccc(C)cc2[nH]c1=O)C1CCCC1` (configuration not stated) | 39.81 | inconclusive | inhibitor, single point |
| `N#CCCn1c(=O)c(-c2cccc(C#N)c2)nc2cnc(N3CCOCC3)nc21` | 31.62 | inconclusive | inhibitor, single point |
| `CCNc1ncc2nc(-c3ccc(Cl)cc3)c(=O)n(C3CC3)c2n1` | 25.12 | active | - |
| `Cc1ccc(N2C(=O)NC(=O)C3(Cc4ccccc4N4CCCC43)C2=O)cc1` (configuration not stated) | 39.81 | inconclusive | inhibitor, single point |
| `COc1ccc(Nc2ncc3c(n2)CC(c2ccc(OC)cc2)CC3=O)cc1` (configuration not stated) | 39.81 | inconclusive | inhibitor, single point |
| `CCOC(=O)N1CCN(C(=O)c2ccc3nc4ccc(Cl)cc4c(=O)n3c2)CC1` | 15.85 | active | - |

The first 2 entries again:

* Cc1cccn2c(=O)c3cc(C#N)c(=N)n(Cc4cccnc4)c3nc12 | potency 31.62 µM (inconclusive; inhibitor, single point)
* COc1ccc(S(=O)(=O)C(C#N)c2nc3ccccc3nc2N2CCCC(C)C2)cc1 (configuration not stated) | potency 31.62 µM (active)